Values from PubChem BioAssay AID1259302 (Sanger Institute, 2017)

Assay: 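Retest in SW1116 cells of candidate synthetic-lethal pairs of kinase and drug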 (follow-up of hits)
System: human SW1116 colorectal cancer cells
Reagent: single siRNA against human genes
Treatment: anchor drugs BYL719 at 1 µM, cetuximab at 5 µg/ml or trametinib at 10 nM, each compared with DMSO vehicle; exposure time not given
Detection: 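Viability relative to a pooled non-targeting control siRNA, averaged over replicates; for each anchor drug a synergy score weighs the joint effect against siRNA and drug alone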
Reading the numbers: synergy score with trametinib and synergy score with BYL719 and synergy score with cetuximab: higher = stronger synthetic lethal interaction with the drug; viability, siRNA with DMSO: higher = more viable cells
Rule for the call: 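Active means a synergy score over 0.10 with any one of the three anchor drugs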
In all, the deposit lists 160 reagents; shown is a random part of them. Of all reagents, 122 (76%) were called active. 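Most active calls come from the trametinib arm; viability under BYL719 or cetuximab treatment is not printed.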 Unmarked entries are inactive. Reagents against one gene are numbered here. Viability is capped at 1. Not all columns of the deposit are shown. Not stated in the record: the amount of reagent, the time to read-out.

gene symbol	reagent no.	synergy score with trametinib	synergy score with BYL719	synergy score with cetuximab	viability, siRNA with DMSO
GUCY2D	1	0.161 (active)	0.0178	0.0454	0.871
GUCY2D	2	0.216 (active)	0.0149	0.142	0.707
GUCY2D	3	0.0568	-0.1	-0.0683	0.718
GUCY2D	4	0.109 (active)	-0.0894	0.0186	1
NLK	1	0.103 (active)	-0.0114	0.105	0.91
NLK	2	0.22 (active)	0.0021	0.108	0.669
NLK	3	0.127 (active)	-0.0929	0.0805	0.965
NLK	4	0.0824	-0.133	-0.0914	0.838
CHD4	1	0.0426	0.0228	0.0461	0.45
CHD4	2	0.262 (active)	-0.0556	0.23	0.605
CHD4	3	0.131 (active)	-0.171	0.0833	0.679
CHD4	4	0.171 (active)	-0.153	0.123	0.774
PIK3CA	1	0.217 (active)	0.157	0.165	0.837
PIK3CA	2	0.136 (active)	0.00801	0.0104	0.697
PIK3CA	3	0.303 (active)	0.1	-0.285	0.777
PIK3CA	4	0.13 (active)	-0.0628	0.161	0.864
HUNK	1	0.217 (active)	0.0193	0.0444	0.603
HUNK	2	0.163 (active)	-0.0527	0.0587	0.474
HUNK	3	0.26 (active)	0.112	0.0995	0.884
HUNK	4	0.334 (active)	0.153	0.141	0.81
CDKN2D	1	0.352 (active)	-0.0441	0.0137	0.777
CDKN2D	2	0.248 (active)	-0.0122	0.143	0.807
CDKN2D	3	0.231 (active)	-0.0232	0.115	1
CDKN2D	4	0.356 (active)	0.0623	0.17	0.826
COASY	1	0.189 (active)	0.0915	0.0895	0.873
COASY	2	0.118 (active)	-0.0352	0.0889	0.696
COASY	3	0.239 (active)	0.0684	0.186	0.785
COASY	4	0.186 (active)	0.0545	0.268	0.755
MAP3K8	1	0.101 (active)	0.0433	-0.00364	0.973
MAP3K8	2	0.055	-0.0268	0.0131	0.599
MAP3K8	3	0.192 (active)	-0.0121	0.126	0.894
MAP3K8	4	0.308 (active)	-0.00468	0.0932	0.93
SYK	1	0.161 (active)	-0.0705	0.000821	0.605
SYK	2	0.257 (active)	-0.0065	0.0691	0.737
SYK	3	0.191 (active)	0.0304	0.094	0.58
SYK	4	0.148 (active)	-0.0228	0.061	0.9
PIM1	1	0.145 (active)	-0.0101	0.16	0.8
PIM1	2	0.141 (active)	-0.00181	0.0533	0.768
PIM1	3	-0.176	-0.135	-0.114	0.864
PIM1	4	0.136 (active)	-0.01	0.092	0.779
MAPKAPK2	1	-0.133	-0.0747	-0.0552	0.941
MAPKAPK2	2	0.074	0.0599	0.0338	0.936
MAPKAPK2	3	0.277 (active)	0.149	0.193	0.773
MAPKAPK2	4	0.0501	0.00589	0.0301	0.851
MPP3	1	0.105 (active)	0.0263	0.0951	0.895
MPP3	2	0.213 (active)	-0.00514	0.0868	0.768
MPP3	3	0.391 (active)	0.182	0.245	0.75
MPP3	4	0.342 (active)	0.0355	0.152	0.694
EPHA6	1	0.314 (active)	-0.0447	0.164	0.782
EPHA6	2	0.264 (active)	0.0961	0.231	0.762
EPHA6	3	0.122 (active)	-0.111	0.0945	0.651
EPHA6	4	0.221 (active)	0.188	0.192	1
GTF2H1	1	0.199 (active)	0.0232	-0.0452	0.8
GTF2H1	2	0.0779	0.0275	0.0797	0.921
GTF2H1	3	0.0795	-0.107	0.036	0.757
GTF2H1	4	0.191 (active)	0.0403	0.0878	0.582
STK36	1	0.315 (active)	-0.0208	0.23	0.864
STK36	2	0.168 (active)	0.0139	0.0232	0.986
STK36	3	0.178 (active)	-0.0459	0.0163	0.744
STK36	4	-0.195	-0.135	-0.0471	0.883
CRIM1	1	0.0864 (active)	-0.146	0.102	0.88
CRIM1	2	0.0551	0.0144	0.0566	1
CRIM1	3	0.111 (active)	0.125	0.0411	0.992
CRIM1	4	0.211 (active)	0.121	0.0709	0.796

In a second layout: entries from further up
| gene symbol | reagent no. | synergy score with trametinib | synergy score with BYL719 | synergy score with cetuximab | viability, siRNA with DMSO |
| --- | --- | --- | --- | --- | --- |
| STK36 | 1 | 0.315 (active) | -0.0208 | 0.23 | 0.864 |
| STK36 | 2 | 0.168 (active) | 0.0139 | 0.0232 | 0.986 |
| STK36 | 3 | 0.178 (active) | -0.0459 | 0.0163 | 0.744 |
| STK36 | 4 | -0.195 | -0.135 | -0.0471 | 0.883 |
| CRIM1 | 1 | 0.0864 (active) | -0.146 | 0.102 | 0.88 |
| CRIM1 | 2 | 0.0551 | 0.0144 | 0.0566 | 1 |
| CRIM1 | 3 | 0.111 (active) | 0.125 | 0.0411 | 0.992 |
| CRIM1 | 4 | 0.211 (active) | 0.121 | 0.0709 | 0.796 |
